Reference: the supplement of paper PMC10338343
± gives the standard deviation. The list shows a part of the results, in another mix than the full data. Many entries were measured with a wide error. The list shows a part of the results.

What was measured:
[1] = tested on: MILI (PIWIL2) piRISC loaded with L1MC piRNA (26 nt); test: pre-steady-state target cleavage rate (min^-1); higher = faster piRNA-guided slicing of the target; conditions: guide: L1MC piRNA 5'p-UAACUAAAUACUAUGCAAGCUGUAGG
Outline: (§1)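 Active affinity-purified piRISC (1 nM) loaded with one synthetic guide was mixed with a transcribed, DNA-blocked target RNA library (0.1 nM), with or without 500 nM GTSF1 partner protein, in HEPES–potassium acetate buffer at 33 °C for 0–8 or 0–960 min. Uncleaved targets were sequenced, normalised to depth and to weakly complementary targets, and pooled across three trials, with k3 capped at 0.0001 min^-1. The pre-steady-state cleavage rate was determined with a burst-and-steady-state fit.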

[2] = tested on: MIWI (PIWIL1) piRISC loaded with L1MC piRNA (30 nt); test: as above; conditions: guide: L1MC piRNA 5'p-UAACUAAAUACUAUGCAAGCUGUAGGUCCU
Outline: as §1

[3] = tested on: EfPiwi piRISC loaded with L1MC piRNA (26 nt); test: pre-steady-state target cleavage rate (min^-1); guide: L1MC piRNA 5'p-UAACUAAAUACUAUGCAAGCUGUAGG; MIWI and MILI are mouse PIWI proteins and EfPiwi is from a freshwater sponge; tags in brackets are library labels; higher = faster piRNA-guided slicing of the target
Outline: as §1

[4] = auxiliary factor: none (no GTSF1)
[5] = auxiliary factor: 500 nM mouse GTSF1
[6] = auxiliary factor: 500 nM Ephydatia muelleri Gtsf1
[7] = auxiliary factor: none (no Gtsf1)

Row | Sequence | pre-steady-state target cleavage rate [1, 4] | pre-steady-state target cleavage rate [2, 5] | pre-steady-state target cleavage rate [2, 4] | pre-steady-state target cleavage rate [3, 6] | pre-steady-state target cleavage rate [1, 5] | pre-steady-state target cleavage rate [3, 7]
1 | UCCUCGAUCAGCUUGCAUAGUAUUUAGAAA | 0.00185 ± 0.0032 | 0.422 ± 0.044 | 0.00569 ± 0.0022 | 0.00579 ± 0.0018 | – | –
2 | UCCUGGAUGUCCAACCAUAGUAUUUAGUAA | < 0.0001 | 0.00235 ± 0.0047 | 0.000198 ± 0.022 | 0.000292 ± 0.011 | – | –
3 | UCCUGGAUGAGCUUGGUAAGUAUUUACAAA | 0.00055 ± 0.012 | 0.000485 ± 0.02 | 0.00101 ± 0.0067 | 0.000193 ± 0.023 | – | –
4 | UCCUGGAUGUGCUUCCAUAGUAAUUAGUUA | 0.000553 ± 0.01 | 0.00337 ± 0.0051 | 0.000599 ± 0.011 | 0.00034 ± 0.014 | – | –
5 | UCCUGGUACAGCUUCGUUAGUAUUUUCAAA | 0.0013 ± 0.0065 | 0.00107 ± 0.01 | 0.000897 ± 0.0066 | 0.000189 ± 0.037 | – | –
6 | UCCUCCUGCAGCUUGCAUAGUAUUUAGUUA | – | 1.1 ± 0.053 | 0.0513 ± 0.0088 | 0.103 ± 0.024 | 0.301 ± 0.018 | –
7 | UCCUGCUACAGCUUGCAUAUAUUUAGUUA | 0.00226 ± 0.0027 | 0.408 ± 0.045 | 0.00397 ± 0.0033 | – | – | 0.000892 ± 0.0081
8 | UCCUGCUACAGCUUGCAUUAGUAUUUAGUUA | 0.00154 ± 0.0034 | 0.0188 ± 0.0083 | 0.000989 ± 0.0071 | 0.00378 ± 0.003 | – | –
9 | UCCUGGUACAGCUUGCAUUCAAUUUAGUUA | 0.00161 ± 0.0069 | 0.00302 ± 0.0037 | 0.000302 ± 0.012 | 0.000236 ± 0.02 | – | –
10 | UCCUGGAUGUCCUUGCAUAGUAUAUUGUUA | 0.00196 ± 0.0039 | 0.00947 ± 0.0039 | 0.00202 ± 0.0028 | 0.000676 ± 0.0042 | – | –
11 | UCCUGGAUGAGCUUGCUAAGUAUUUAGUAA | 0.00149 ± 0.0044 | 0.00308 ± 0.0044 | 0.00048 ± 0.0056 | 0.000381 ± 0.0092 | – | –
12 | UCCUGGAUCAGCUUGCAGUAGUAUUUAGUUA | 0.000531 ± 0.013 | 0.00343 ± 0.0037 | 0.0011 ± 0.0067 | 0.00203 ± 0.0056 | – | –
13 | UCCUGGAUGUCCUAGCAAAGUAUUUAGUUA | 0.00175 ± 0.0035 | 0.00384 ± 0.0042 | 0.00097 ± 0.0063 | – | – | 0.000129 ± 0.028
14 | UCCUCGUACAGCUUGCUUAGUAUUUAGUUA | – | 1.51 ± 0.069 | 0.0419 ± 0.0089 | 0.0519 ± 0.012 | 0.286 ± 0.016 | –
15 | UCCUGGAUCAGCUAUGCAUAGUAUUUAGUUA | – | 1.04 ± 0.073 | 0.0161 ± 0.0043 | 0.106 ± 0.02 | 0.281 ± 0.019 | –
16 | UCCUGCAACAGCUUGCAUAGUAUUUAGUAA | – | 1.22 ± 0.083 | 0.0736 ± 0.021 | 0.00572 ± 0.0023 | 0.333 ± 0.031 | –
17 | UCCUGGAUGUCCUUGCAAUAGUAUUUAGUUA | 0.00216 ± 0.0029 | 0.00199 ± 0.0056 | 0.00159 ± 0.0052 | 0.00168 ± 0.0048 | – | –
18 | UCCUCGAACAGCUUGCAUAGUAUUUAGUUA | – | 1.39 ± 0.039 | 0.0825 ± 0.015 | 0.198 ± 0.038 | 0.3 ± 0.017 | –
19 | UCCUCCUACACCUUGCAUAGAAUUUAGUUA | 0.00087 ± 0.0065 | 0.341 ± 0.082 | 0.00682 ± 0.0023 | – | – | 0.000387 ± 0.013
20 | UCCUGGAUGUCCUUGCAUAGUAUUUUCAUA | 0.00114 ± 0.0056 | 0.00378 ± 0.0042 | 0.00128 ± 0.0049 | 0.00154 ± 0.0056 | – | –
21 | UCCUGGAUGUGCUUGCAUAGUAUUAGUUA | 0.00152 ± 0.0041 | 0.002 ± 0.0064 | 0.00217 ± 0.0034 | 0.0016 ± 0.0037 | – | –
22 | UCCUGGAUCAGCUACGAUAGUAUUUAGUAA | 0.000438 ± 0.015 | 0.0009 ± 0.011 | 0.000694 ± 0.0099 | 0.000224 ± 0.026 | – | –

A second format for some results above.
Row	Sequence	pre-steady-state target cleavage rate [1, 4]	pre-steady-state target cleavage rate [2, 5]	pre-steady-state target cleavage rate [2, 4]	pre-steady-state target cleavage rate [3, 6]	pre-steady-state target cleavage rate [1, 5]	pre-steady-state target cleavage rate [3, 7]
7	UCCUGCUACAGCUUGCAUAUAUUUAGUUA	0.00226 ± 0.0027	0.408 ± 0.045	0.00397 ± 0.0033	–	–	0.000892 ± 0.0081
8	UCCUGCUACAGCUUGCAUUAGUAUUUAGUUA	0.00154 ± 0.0034	0.0188 ± 0.0083	0.000989 ± 0.0071	0.00378 ± 0.003	–	–
9	UCCUGGUACAGCUUGCAUUCAAUUUAGUUA	0.00161 ± 0.0069	0.00302 ± 0.0037	0.000302 ± 0.012	0.000236 ± 0.02	–	–
10	UCCUGGAUGUCCUUGCAUAGUAUAUUGUUA	0.00196 ± 0.0039	0.00947 ± 0.0039	0.00202 ± 0.0028	0.000676 ± 0.0042	–	–
11	UCCUGGAUGAGCUUGCUAAGUAUUUAGUAA	0.00149 ± 0.0044	0.00308 ± 0.0044	0.00048 ± 0.0056	0.000381 ± 0.0092	–	–
12	UCCUGGAUCAGCUUGCAGUAGUAUUUAGUUA	0.000531 ± 0.013	0.00343 ± 0.0037	0.0011 ± 0.0067	0.00203 ± 0.0056	–	–
13	UCCUGGAUGUCCUAGCAAAGUAUUUAGUUA	0.00175 ± 0.0035	0.00384 ± 0.0042	0.00097 ± 0.0063	–	–	0.000129 ± 0.028
14	UCCUCGUACAGCUUGCUUAGUAUUUAGUUA	–	1.51 ± 0.069	0.0419 ± 0.0089	0.0519 ± 0.012	0.286 ± 0.016	–
15	UCCUGGAUCAGCUAUGCAUAGUAUUUAGUUA	–	1.04 ± 0.073	0.0161 ± 0.0043	0.106 ± 0.02	0.281 ± 0.019	–

Going on with the list.

Row | Sequence | pre-steady-state target cleavage rate [1, 4] | pre-steady-state target cleavage rate [2, 5] | pre-steady-state target cleavage rate [2, 4] | pre-steady-state target cleavage rate [3, 6] | pre-steady-state target cleavage rate [1, 5] | pre-steady-state target cleavage rate [3, 7]
23 | UCCUGGAUGUCGAUACAUAGUAUUUAGUUA | 0.00226 ± 0.003 | 0.00251 ± 0.0042 | 0.000339 ± 0.015 | 0.000337 ± 0.011 | – | –
24 | UCCUGGUACAGCUUGCAUACAUUUUUCAAA | 0.00135 ± 0.0081 | 0.000835 ± 0.013 | 0.000553 ± 0.012 | 0.00028 ± 0.015 | – | –
25 | UCCUGGAUGUGCUUCCAUAGUAUUUACUUA | 0.000539 ± 0.011 | 0.00445 ± 0.0044 | 0.000702 ± 0.011 | 0.00153 ± 0.0059 | – | –
26 | UCCUGGAUGUCGAACGUAUCUAUUUAUUUA | – | 0.000132 ± 0.036 | 0.000211 ± 0.019 | – | 0.000298 ± 0.01 | < 0.0001
27 | UCCUGGAUGUCGUUCCAUAGUAUUUUGUUA | 0.000271 ± 0.02 | 0.00176 ± 0.0071 | 0.000319 ± 0.023 | 0.000577 ± 0.0084 | – | –
28 | UCCUGGAUGUCGAAGCAUAGUAUUUAUUUA | 0.000444 ± 0.01 | 0.000904 ± 0.011 | 0.000771 ± 0.0056 | 0.000218 ± 0.018 | – | –
29 | UCCUGGAUGUCGAACCAUAGUAAUUAGUUA | – | 0.000196 ± 0.019 | 0.000218 ± 0.02 | < 0.0001 | 0.000264 ± 0.017 | –
30 | UCCUCCUACAGCUUGCAUAGUUUUUACAAA | 0.0014 ± 0.0044 | 0.185 ± 0.029 | 0.0016 ± 0.0043 | 0.00552 ± 0.0037 | – | –
31 | UCCUCUUACAGCUUGCAUAGUAUUUAGUUA | – | 1.62 ± 0.055 | 0.061 ± 0.0099 | 0.243 ± 0.061 | 0.35 ± 0.015 | –
32 | UCCUGGAUGUCGAACGUAUCUAUUUAGUUA [g2:g10:cont:t1A] | 0.000156 ± 0.021 | 0.000291 ± 0.017 | 0.000133 ± 0.037 | – | – | 0.000125 ± 0.034
33 | UCCUGGAUGUCGUUGCCAUAGUAUUUAGUUA | 0.00067 ± 0.011 | 0.000779 ± 0.01 | 0.000481 ± 0.014 | 0.000216 ± 0.02 | – | –
34 | UCCUCCUACAGCUUGCAUAAUAUUUAGUUA | – | 0.52 ± 0.03 | 0.0234 ± 0.0044 | 0.00664 ± 0.0024 | 0.292 ± 0.026 | –
35 | UCCUGGUACUCGUUGCAUAGUAUUUAGAAA | 0.000673 ± 0.01 | 0.00249 ± 0.007 | 0.00112 ± 0.0085 | 0.00143 ± 0.0043 | – | –
36 | UCCUGGAUGUCCUUGCAUAGAUAUUAGUUA | 0.00133 ± 0.0041 | 0.00346 ± 0.0043 | 0.00114 ± 0.007 | 0.00105 ± 0.0052 | – | –
37 | UCCUCCUACAGCUUGCAUAGUAUUUAGUUA [g2:g26:cont:t1A] | – | 1.32 ± 0.052 | 0.0816 ± 0.015 | 0.121 ± 0.034 | 0.344 ± 0.02 | –
38 | UCCUGGAUGUCGAACGUAAUAUUUAGUUA | – | 0.0002 ± 0.035 | 0.000287 ± 0.027 | – | 0.000239 ± 0.026 | 0.000141 ± 0.039
39 | UCCUGGAUGUGCUUGCAUAGUAAAAAGUUA | 0.00239 ± 0.0031 | 0.00144 ± 0.0079 | 0.000317 ± 0.011 | 0.000209 ± 0.029 | – | –
40 | UCCUGGAUCAGCUACGAUAGUAUUUAGUUA | 0.000901 ± 0.0082 | 0.00305 ± 0.0044 | 0.00163 ± 0.0046 | – | – | 0.000429 ± 0.016
41 | UCCUGGUACAGCUUGCAUGAGUAUUUAGUUA | 0.00204 ± 0.0065 | 0.00254 ± 0.0065 | 0.000605 ± 0.016 | 0.000708 ± 0.0084 | – | –
42 | UCCUCCUACAGCGUUGCAUAGUAUUUAGUUA | – | 0.96 ± 0.057 | 0.0256 ± 0.0045 | 0.0299 ± 0.009 | 0.296 ± 0.021 | –
43 | UCCUGGAUGUCGAUGCAGAGUAUUUAGUUA | 0.00153 ± 0.0032 | 0.000216 ± 0.043 | 0.000855 ± 0.006 | 0.00129 ± 0.0053 | – | –
44 | UCCUGGAUGUCGUUGCAUAGGUAUUUAGUUA | – | 0.000789 ± 0.013 | 0.00178 ± 0.006 | 0.000281 ± 0.018 | 0.00394 ± 0.0042 | –
